According to patent publication CN115536746A:
No constants are given. Whether binding was seen depends on the method and setting. Some binding calls cover weakened binding; strength is not graded here. Where a sequence is shown, tags or fusion partners need not be part of it.

T1: hCRTAM蛋白 (screening ELISA, tag not stated) (human) (UniProt O95727)
T1 sequence (looked up): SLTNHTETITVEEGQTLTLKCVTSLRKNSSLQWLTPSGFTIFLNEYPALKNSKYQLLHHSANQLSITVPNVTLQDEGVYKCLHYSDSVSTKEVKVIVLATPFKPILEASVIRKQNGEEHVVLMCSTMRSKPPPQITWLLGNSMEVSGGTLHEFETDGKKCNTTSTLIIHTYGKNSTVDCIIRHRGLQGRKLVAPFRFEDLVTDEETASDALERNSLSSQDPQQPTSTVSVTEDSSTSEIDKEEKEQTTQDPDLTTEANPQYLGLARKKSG

T2: cCRTAM-His (猴源CRTAM蛋白胞外区 + His标签) (猴源 (食蟹猴, cynomolgus monkey))
T2 sequence: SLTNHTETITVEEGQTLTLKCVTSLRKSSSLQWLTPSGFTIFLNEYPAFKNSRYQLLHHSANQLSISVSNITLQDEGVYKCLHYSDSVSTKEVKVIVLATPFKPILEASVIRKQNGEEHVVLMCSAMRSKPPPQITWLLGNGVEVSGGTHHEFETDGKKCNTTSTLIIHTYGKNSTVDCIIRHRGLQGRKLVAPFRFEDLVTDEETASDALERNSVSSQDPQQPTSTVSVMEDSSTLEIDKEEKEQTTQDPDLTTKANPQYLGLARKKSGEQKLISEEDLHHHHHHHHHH

B1: C110 (鼠源单克隆抗体) (antibody, V domains shown)
VH: QVQLQQSGPELVKPGASVRLSCKASGYTFTNNDINWVKQRPGQGLEWIGWIYPRDGSTQYNEKFRGKATLTVDTSSSTAYMEVHSLTSEDSAVYFCARGLVDYWGQGTTLTVSS
VL: DVVMTQTPLSLPVSLGDHASISCRSSQSLVHSNGNTYLHWYLQKPGQSPKLLIYKVSNRFSGVPDRFSGSGSGTDFTLKISRVEAEDLGVYFCSQSTRVPWTFGGGTKLEIK
B2: HuC94-31 (antibody, V domains shown)
VH: EVQLLESGGGLVQPGGSLRLSCAASGFTFSTSAMSWVRQAPGKGLEWVATISSGGDYTYYSDNVKGRFTISRDNSKSTLYLQMNSLRAEDTAVYYCTLGYDEADYWGQGSLLTVSS
VL: DIQMTQSPSSLSASVGDRVTITCRASQDISNYLNWYQQKPGKAPKLLIYYTSRLHSGVPSRFSGSGSGTDYTFTISSLQPEDIATYYCQQGDTFPWTFGGGTKLEIK
B3: C124 (鼠源单克隆抗体) (antibody, V domains shown)
VH: QVQLQQSGAELMKPGASVKISCKATGYSFSNYWIEWVRQRPGHGLEWIGEILPGVPTIYYNGKFKDKATFTADASSNTAHMRLTGLTSEDSAVYYCSRDPWFAYWGQGTLVTVSA
VL: DILLTQSPAILSVSPGERVSFSCRASQSIGTSLHWFQQRTNGSPRLLIKYASQSISGLPSRFGGSGSGTDFTLSISSVESEDIADYYCQQSNNWPFTFGGGTKLEIK
B4: C94 (鼠源单克隆抗体) (antibody, V domains shown)
VH: EVMLVESGGGLVKPGGSLKLSCAASGFTFSTSAMSWVRQTPEKRLEWVATISSGGDYTYYSDNVKGRFTISRDNAKSTLYLQMSSLRSEDTAMYYCTLGYDEADYWGQGSTLTVSS
VL: DIQMTQTTSSLSASLGDRVTISCRASQDISNYLNWYQQKPDGTVKLLIYYTSRLHSGVPSRFSGSGSGTDYSLTISNLEEEDIATYFCQQGDTFPWTFGGGTKLEIK

Tests used:
[1] = target: T1, hCRTAM蛋白 (screening ELISA, tag not stated) (human); assay: ELISA, hybridoma subclone supernatant on hCRTAM protein
[2] = target: T2, cCRTAM-His (猴源CRTAM蛋白胞外区 + His标签) (猴源 (食蟹猴, cynomolgus monkey)); assay: ELISA, cCRTAM-His coated at 2 μg/mL

| Binder | binding [1] | binding [2] |
| --- | --- | --- |
| B1 | binds | – |
| B2 | – | binds |
| B3 | binds | – |
| B4 | binds | – |
